Measured values reported in PMC9551088.
No constants are given. Whether binding was seen depends on the method and setting. Binding seen in cells or lysates may run through a third protein. Where a sequence is shown, tags or fusion partners need not be part of it.

Protein sequences, listed by entry. Tags and fused reporters are not part of them.
UniProt Q9Y4X5: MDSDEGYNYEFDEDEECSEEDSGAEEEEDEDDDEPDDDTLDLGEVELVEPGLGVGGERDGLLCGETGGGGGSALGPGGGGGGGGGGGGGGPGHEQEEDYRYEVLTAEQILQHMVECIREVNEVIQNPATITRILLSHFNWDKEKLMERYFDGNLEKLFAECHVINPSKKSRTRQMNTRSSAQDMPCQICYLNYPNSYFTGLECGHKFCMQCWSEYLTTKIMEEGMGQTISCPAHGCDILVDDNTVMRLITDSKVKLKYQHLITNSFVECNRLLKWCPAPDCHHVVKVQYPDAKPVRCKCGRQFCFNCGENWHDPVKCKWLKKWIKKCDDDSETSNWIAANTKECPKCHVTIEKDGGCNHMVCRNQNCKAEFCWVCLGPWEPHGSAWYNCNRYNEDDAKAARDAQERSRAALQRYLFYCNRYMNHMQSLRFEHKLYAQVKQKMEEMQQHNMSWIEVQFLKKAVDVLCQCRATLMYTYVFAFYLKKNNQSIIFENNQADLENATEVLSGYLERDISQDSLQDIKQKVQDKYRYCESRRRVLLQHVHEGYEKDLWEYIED

B1: HA-RIG-I, O95786 1-925 (protein)
chain: MTTEQRRSLQAFQDYIRKTLDPTYILSYMAPWFREEEVQYIQAEKNNKGPMEAATLFLKFLLELQEEGWFRGFLDALDHAGYSGLYEAIESWDFKKIEKLEEYRLLLKRLQPEFKTRIIPTDIISDLSECLINQECEEILQICSTKGMMAGAEKLVECLLRSDKENWPKTLKLALEKERNKFSELWIVEKGIKDVETEDLEDKMETSDIQIFYQEDPECQNLSENSCPPSEVSDTNLYSPFKPRNYQLELALPAMKGKNTIICAPTGCGKTFVSLLICEHHLKKFPQGQKGKVVFFANQIPVYEQQKSVFSKYFERHGYRVTGISGATAENVPVEQIVENNDIIILTPQILVNNLKKGTIPSLSIFTLMIFDECHNTSKQHPYNMIMFNYLDQKLGGSSGPLPQVIGLTASVGVGDAKNTDEALDYICKLCASLDASVIATVKHNLEELEQVVYKPQKFFRKVESRISDKFKYIIAQLMRDTESLAKRICKDLENLSQIQNREFGTQKYEQWIVTVQKACMVFQMPDKDEESRICKALFLYTSHLRKYNDALIISEHARMKDALDYLKDFFSNVRAAGFDEIEQDLTQRFEEKLQELESVSRDPSNENPKLEDLCFILQEEYHLNPETITILFVKTRALVDALKNWIEGNPKLSFLKPGILTGRGKTNQNTGMTLPAQKCILDAFKASGDHNILIATSVADEGIDIAQCNLVILYEYVGNVIKMIQTRGRGRARGSKCFLLTSNAGVIEKEQINMYKEKMMNDSILRLQTWDEAVFREKILHIQTHEKFIRDSQEKPKPVPDKENKKLLCRKCKALACYTADVRVIEECHYTVLGDAFKECFVSRPHPKPKQFSSFEKRAKIFCARQNCSHDWGIHVKYKTFEIPVIKIESFVVEDIATGVQTLYSKWKDFHFEKIPFDPAEMSK
B2: HA-TBK1 (protein, UniProt Q9UHD2 1-729)
chain: MQSTSNHLWLLSDILGQGATANVFRGRHKKTGDLFAIKVFNNISFLRPVDVQMREFEVLKKLNHKNIVKLFAIEEETTTRHKVLIMEFCPCGSLYTVLEEPSNAYGLPESEFLIVLRDVVGGMNHLRENGIVHRDIKPGNIMRVIGEDGQSVYKLTDFGAARELEDDEQFVSLYGTEEYLHPDMYERAVLRKDHQKKYGATVDLWSIGVTFYHAATGSLPFRPFEGPRRNKEVMYKIITGKPSGAISGVQKAENGPIDWSGDMPVSCSLSRGLQVLLTPVLANILEADQEKCWGFDQFFAETSDILHRMVIHVFSLQQMTAHKIYIHSYNTATIFHELVYKQTKIISSNQELIYEGRRLVLEPGRLAQHFPKTTEENPIFVVSREPLNTIGLIYEKISLPKVHPRYDLDGDASMAKAITGVVCYACRIASTLLLYQELMRKGIRWLIELIKDDYNETVHKKTEVVITLDFCIRNIEKTVKVYEKLMKINLEAAELGEISDIHTKLLRLSSSQGTIETSLQDIDSRLSPGGSLADAWAHQEGTHPKDRNVEKLQVLLNCMTEIYYQFKKDKAERRLAYNEEQIHKFDKQKLYYHATKAMTHFTDECVKKYEAFLNKSEEWIRKMLHLRKQLLSLTNQCFDIEEEVSKYQEYTNELQETLPQKMFTASSGIKHTMTPIYPSSNTLVEMTLGMKKLKEEMEGVVKELAENNHILERFGSLTMDGGLRNVDCL
B3: HA-IRF3 (protein, UniProt Q14653 1-427)
chain: MGTPKPRILPWLVSQLDLGQLEGVAWVNKSRTRFRIPWKHGLRQDAQQEDFGIFQAWAEATGAYVPGRDKPDLPTWKRNFRSALNRKEGLRLAEDRSKDPHDPHKIYEFVNSGVGDFSQPDTSPDTNGGGSTSDTQEDILDELLGNMVLAPLPDPGPPSLAVAPEPCPQPLRSPSLDNPTPFPNLGPSENPLKRLLVPGEEWEFEVTAFYRGRQVFQQTISCPEGLRLVGSEVGDRTLPGWPVTLPDPGMSLTDRGVMSYVRHVLSCLGGGLALWRAGQWLWAQRLGHCHTYWAVSEELLPNSGHGPDGEVPKDKEGGVFDLGPFIVDLITFTEGSGRSPRYALWFCVGESWPQDQPWTKRLVMVKVVPTCLRALVEMARVGGASSLENTVDLHISNSHPLSLTSDQYKAYLQDLVEGMDFQGPGES

Tests used:
[1] = target: FLAG-ARIH1 (human), Q9Y4X5; test: co-IP; settings: remark: other sources report otherwise
FLAG-ARIH1 (human) = FLAG-ARIH1 (human) (UniProt Q9Y4X5); test: co-IP

Row | binding [1] | binding (FLAG-ARIH1 (human)) | Binder
1 | no binding |  | B1
2 |  | no binding | B2
3 |  | no binding | B3
